In paper PMC11590682 one finds binding data, which are given here for one molecule.

These are yes or no findings as the source states them, for the method shown. Some results given as binding are weak or reduced against the parent protein; the word gives no strength.

This assay concerns the target Siglec-5 (endogenous, activated human T cells) (human (endogenous in activated T cells from adult PBMCs)) (UniProt O15389). The assay is described as follows: non-reducing SDS-PAGE and western blot; CD3+ T cells from adult PBMCs stimulated with plate bound anti-CD3, anti-CD28 and IL-2 for up to 3 days; lysed and boiled in non-reducing SDS sample buffer with 10 mM iodoacetamide. On the technique in general: Immunoblotting shows a protein as a band on a membrane.

B1: Siglec-5 (endogenous, activated human T cells) (receptor, UniProt O15389 17-551)
chain: EKPVYELQVQKSVTVQEGLCVLVPCSFSYPWRSWYSSPPLYVYWFRDGEIPYYAEVVATNNPDRRVKPETQGRFRLLGDVQKKNCSLSIGDARMEDTGSYFFRVERGRDVKYSYQQNKLNLEVTALIEKPDIHFLEPLESGRPTRLSCSLPGSCEAGPPLTFSWTGNALSPLDPETTRSSELTLTPRPEDHGTNLTCQMKRQGAQVTTERTVQLNVSYAPQTITIFRNGIALEILQNTSYLPVLEGQALRLLCDAPSNPPAHLSWFQGSPALNATPISNTGILELRRVRSAEEGGFTCRAQHPLGFLQIFLNLSVYSLPQLLGPSCSWEAEGLHCRCSFRARPAPSLCWRLEEKPLEGNSSQGSFKVNSSSAGPWANSSLILHGGLSSDLKVSCKAWNIYGSQSGSVLLLQGRSNLGTGVVPAALGGAGVMALLCICLCLIFFLIVKARRKQAAGRPEKMDDEDPIMGTITSGSRKKPWPDSPGDQASPPGDAPPLEEQKELHYASLSFSEMKSREPKDQEAPSTTEYSEIKTSK
On to B1, for which the binding result was “binds”.
